The target of assay [1] is GST fusion protein containing MG10 (Gln213 to Ala231) of human Mp1 (human) (UniProt P40238). Description: adsorption to an MG10-GST fusion protein-immobilized affinity column.
For assay [2] the target is unchanged. Description: Western blotting of GST fusion proteins. (In western blotting, separated proteins are transferred to a membrane and probed.)
Assay [3] shares this target. Description: Western blotting of GST fusion proteins (refers back to Example 1.8).

Positions count from the first letter of the chain named. No constants are given. Whether binding was seen depends on the method and setting. Some entries that bind do so weakly or less than the wild type.

We go through six molecules from US20090117097A1 (Chugai, published 2009).

B1: hVB22B p-z sc(Fv)2 (scFv)
scFv: QVQLVQSGPEVKKPGASVKVSCKASGYTFTNSWMNWVRQRPGKGLEWMGRIYPGDGETIYNGKFRVRVTITADESTSTAYMELSSLRSEDTAVYYCARGYDDYSFAYWGQGTTVTVSSGGGGSGGGGSGGGGSDIVMTQSALSLPVTPGEPASISCRSSKSLLHSNGNTYLYWFQQKPGQSPQLLIYRMSNLASGVPDRFSGSGSGTAFTLKISRVEAEDVGVYYCMQHIEYPFTFGQGTKLEIKGGGGSGGGGSGGGGSQVQLVQSGPEVKKPGASVKVSCKASGYTFTNSWMNWVRQRPGKGLEWMGRIYPGDGETIYNGKFRVRVTITADESTSTAYMELSSLRSEDTAVYYCARGYDDYSFAYWGQGTTVTVSSGGGGSGGGGSGGGGSDIVMTQSALSLPVTPGEPASISCRSSKSLLHSNGNTYLYWFQQKPGQSPQLLIYRMSNLASGVPDRFSGSGSGTAFTLKISRVEAEDVGVYYCMQHIEYPFTFGQGTKLEIK
Turning to B1, the binding result in assay [1] was “binds”.

B2: hVB22B g-e sc(Fv)2 (scFv)
scFv: B1 scFv with M48V, F174Y, Q175L, M308V, F434Y, Q435L
Take B2: the binding result in assay [1] is listed as “binds”.

B3: hVB22B u2-wz4 sc(Fv)2 (scFv)
scFv: B1 scFv with M48I, E82Q, A141P, Q175L, A208D, M308I, E342Q, A401P, Q435L, A468D
B3: the binding result in assay [1] is reported as “binds”.

B4: hVB22B q-wz5 sc(Fv)2 (scFv)
scFv: B1 scFv with M48I, A141P, S181A, Q183R, M308I, A401P, S441A, Q443R
With B4, the binding entry in assay [1] is “binds”.

B5: hVB22B e sc(Fv)2 (scFv)
scFv: B1 scFv with V37I, M48I, T113L, F174Y, Q175L, V297I, M308I, T373L, F434Y, Q435L
Take B5: the binding entry in assay [1] was “binds”.

B6: anti-human Mp1 antibody VB22B (VB22B IgG) (antibody, V domains shown)
VH: QVQLQQSGPELVKPGASVKISCKASGYAFTNSWMNWVKQRPGKGLEWIGRIYPGDGETIYNGKFRVKATLTADKSSSTAYMDISSLTSEDSAVYFCARGYDDYSFAYWGQGTLVTVSA
VL: DIVMTQAAPSIPVTPGESVSISCRSSKSLLHSNGNTYLYWFLQRPGQSPQLLIYRMSNLASGVPDRFSGSGSGTAFTLRISRVEAEDVGVYYCMQHIEYPFTFGSGTKLEIK
notes: Mouse monoclonal IgG purified from hybridoma supernatant; They were cloned with primers complementary to the mouse IgG2b and kappa constant regions; also called murine antibody VB22B
On to B6, for which the binding result in assay [2] and in assay [3] was “binds” each time.
